# In publication PMC10542180:
# Sequences of proteins named here, by UniProt entry; tags and fusion partners are left off.
# UniProt B0XS89: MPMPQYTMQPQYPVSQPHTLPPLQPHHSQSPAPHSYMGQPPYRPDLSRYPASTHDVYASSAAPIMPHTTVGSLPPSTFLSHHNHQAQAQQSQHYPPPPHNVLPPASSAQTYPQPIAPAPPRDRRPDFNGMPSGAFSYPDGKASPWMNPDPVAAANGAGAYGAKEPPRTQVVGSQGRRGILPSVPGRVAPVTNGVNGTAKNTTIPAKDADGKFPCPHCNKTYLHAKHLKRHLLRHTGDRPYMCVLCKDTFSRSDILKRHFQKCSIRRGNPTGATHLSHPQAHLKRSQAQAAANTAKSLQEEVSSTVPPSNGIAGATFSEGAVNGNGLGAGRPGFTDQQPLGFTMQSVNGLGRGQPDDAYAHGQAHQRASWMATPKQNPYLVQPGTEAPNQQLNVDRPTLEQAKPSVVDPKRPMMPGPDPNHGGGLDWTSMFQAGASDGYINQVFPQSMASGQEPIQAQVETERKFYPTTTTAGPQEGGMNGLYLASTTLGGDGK
# UniProt Q4WI89: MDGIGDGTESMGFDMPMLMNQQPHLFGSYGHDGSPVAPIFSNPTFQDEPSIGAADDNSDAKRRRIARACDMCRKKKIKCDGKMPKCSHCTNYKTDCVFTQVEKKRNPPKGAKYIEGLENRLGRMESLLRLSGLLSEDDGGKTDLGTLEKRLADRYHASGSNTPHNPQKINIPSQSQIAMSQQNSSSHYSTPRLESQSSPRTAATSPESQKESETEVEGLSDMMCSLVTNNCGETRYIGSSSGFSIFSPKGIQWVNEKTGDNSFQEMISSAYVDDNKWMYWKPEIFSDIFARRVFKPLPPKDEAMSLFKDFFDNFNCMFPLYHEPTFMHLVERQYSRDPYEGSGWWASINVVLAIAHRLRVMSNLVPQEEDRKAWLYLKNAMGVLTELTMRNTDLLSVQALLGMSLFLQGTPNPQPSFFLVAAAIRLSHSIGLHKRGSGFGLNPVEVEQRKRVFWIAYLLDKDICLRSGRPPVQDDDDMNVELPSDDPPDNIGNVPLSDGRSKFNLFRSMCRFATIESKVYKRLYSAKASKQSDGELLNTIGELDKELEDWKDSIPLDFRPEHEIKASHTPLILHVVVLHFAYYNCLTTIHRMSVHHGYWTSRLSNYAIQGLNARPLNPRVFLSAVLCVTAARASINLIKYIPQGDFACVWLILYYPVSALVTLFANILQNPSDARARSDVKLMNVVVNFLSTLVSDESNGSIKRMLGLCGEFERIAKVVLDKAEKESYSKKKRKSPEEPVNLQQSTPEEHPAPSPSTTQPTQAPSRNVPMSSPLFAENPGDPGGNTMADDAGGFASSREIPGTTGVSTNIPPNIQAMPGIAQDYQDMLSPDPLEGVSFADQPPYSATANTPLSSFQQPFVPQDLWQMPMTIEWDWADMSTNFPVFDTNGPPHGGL
# No constants are given. Whether binding was seen depends on the method and setting. Binding seen in cells or lysates may run through a third protein. Some entries that bind do so weakly or less than the wild type.
# Biological target: FLAG-tagged FfmA (Aspergillus fumigatus) (UniProt B0XS89)
# Assay: co-IP; whole cell protein extract of the DO-FLAG-ffmA strain prepared under nondenaturing conditions; immunoprecipitated with anti-FLAG M2 antibody (or no primary antibody), recovered with anti-mouse antibody on beads; western blot with anti-AtrR and anti-FLAG
substance,measurement,value
AtrR (from UniProt Q4WI89 1-895),binding,binds
